Results published in the supplement of paper PMC10032668.
This is one part of the list. Only hits are listed; about a third recur on repeated control peptides.

By UniProt entry, the sequences of proteins in these tests, tags left out.
NUTF2, P61970, UniProt P61970, whole entry: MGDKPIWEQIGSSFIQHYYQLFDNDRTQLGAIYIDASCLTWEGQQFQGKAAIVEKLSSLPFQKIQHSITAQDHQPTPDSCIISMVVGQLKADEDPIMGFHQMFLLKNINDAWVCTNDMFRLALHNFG
PDLIM7, Q9NR12, UniProt Q9NR12, whole entry: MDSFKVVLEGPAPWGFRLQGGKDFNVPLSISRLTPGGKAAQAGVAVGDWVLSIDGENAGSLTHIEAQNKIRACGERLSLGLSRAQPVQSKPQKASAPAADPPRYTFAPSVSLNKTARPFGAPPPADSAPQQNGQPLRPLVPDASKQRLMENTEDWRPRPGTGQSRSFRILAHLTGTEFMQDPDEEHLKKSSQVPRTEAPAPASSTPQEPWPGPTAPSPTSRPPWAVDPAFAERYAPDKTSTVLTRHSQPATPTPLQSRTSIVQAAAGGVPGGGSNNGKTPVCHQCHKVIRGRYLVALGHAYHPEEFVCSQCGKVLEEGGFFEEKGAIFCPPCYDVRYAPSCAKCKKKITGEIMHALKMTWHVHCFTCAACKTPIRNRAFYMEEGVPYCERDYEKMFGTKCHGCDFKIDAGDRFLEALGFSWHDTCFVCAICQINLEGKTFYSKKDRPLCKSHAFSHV
PIN1, Q13526, UniProt Q13526, whole entry: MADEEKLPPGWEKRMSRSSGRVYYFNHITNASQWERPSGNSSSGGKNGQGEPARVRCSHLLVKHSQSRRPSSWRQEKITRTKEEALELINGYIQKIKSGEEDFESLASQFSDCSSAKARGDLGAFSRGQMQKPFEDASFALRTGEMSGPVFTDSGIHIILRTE
PLK1, P53350, UniProt P53350, whole entry: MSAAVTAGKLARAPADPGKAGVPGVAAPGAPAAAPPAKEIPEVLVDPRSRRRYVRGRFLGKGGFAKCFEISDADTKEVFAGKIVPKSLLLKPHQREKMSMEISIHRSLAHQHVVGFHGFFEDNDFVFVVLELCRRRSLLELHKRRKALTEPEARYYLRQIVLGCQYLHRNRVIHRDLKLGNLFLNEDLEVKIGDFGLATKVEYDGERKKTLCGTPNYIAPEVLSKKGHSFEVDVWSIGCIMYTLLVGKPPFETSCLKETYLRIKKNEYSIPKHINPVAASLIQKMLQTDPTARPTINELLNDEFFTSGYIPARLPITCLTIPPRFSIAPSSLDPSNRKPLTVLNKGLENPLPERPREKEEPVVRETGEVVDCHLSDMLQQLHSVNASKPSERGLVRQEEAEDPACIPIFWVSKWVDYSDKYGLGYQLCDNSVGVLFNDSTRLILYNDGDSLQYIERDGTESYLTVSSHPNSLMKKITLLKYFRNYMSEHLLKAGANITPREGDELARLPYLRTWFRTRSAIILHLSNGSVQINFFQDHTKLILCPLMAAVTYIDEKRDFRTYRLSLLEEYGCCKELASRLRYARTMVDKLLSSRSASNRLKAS
SMARCA4, P51532, UniProt P51532, whole entry: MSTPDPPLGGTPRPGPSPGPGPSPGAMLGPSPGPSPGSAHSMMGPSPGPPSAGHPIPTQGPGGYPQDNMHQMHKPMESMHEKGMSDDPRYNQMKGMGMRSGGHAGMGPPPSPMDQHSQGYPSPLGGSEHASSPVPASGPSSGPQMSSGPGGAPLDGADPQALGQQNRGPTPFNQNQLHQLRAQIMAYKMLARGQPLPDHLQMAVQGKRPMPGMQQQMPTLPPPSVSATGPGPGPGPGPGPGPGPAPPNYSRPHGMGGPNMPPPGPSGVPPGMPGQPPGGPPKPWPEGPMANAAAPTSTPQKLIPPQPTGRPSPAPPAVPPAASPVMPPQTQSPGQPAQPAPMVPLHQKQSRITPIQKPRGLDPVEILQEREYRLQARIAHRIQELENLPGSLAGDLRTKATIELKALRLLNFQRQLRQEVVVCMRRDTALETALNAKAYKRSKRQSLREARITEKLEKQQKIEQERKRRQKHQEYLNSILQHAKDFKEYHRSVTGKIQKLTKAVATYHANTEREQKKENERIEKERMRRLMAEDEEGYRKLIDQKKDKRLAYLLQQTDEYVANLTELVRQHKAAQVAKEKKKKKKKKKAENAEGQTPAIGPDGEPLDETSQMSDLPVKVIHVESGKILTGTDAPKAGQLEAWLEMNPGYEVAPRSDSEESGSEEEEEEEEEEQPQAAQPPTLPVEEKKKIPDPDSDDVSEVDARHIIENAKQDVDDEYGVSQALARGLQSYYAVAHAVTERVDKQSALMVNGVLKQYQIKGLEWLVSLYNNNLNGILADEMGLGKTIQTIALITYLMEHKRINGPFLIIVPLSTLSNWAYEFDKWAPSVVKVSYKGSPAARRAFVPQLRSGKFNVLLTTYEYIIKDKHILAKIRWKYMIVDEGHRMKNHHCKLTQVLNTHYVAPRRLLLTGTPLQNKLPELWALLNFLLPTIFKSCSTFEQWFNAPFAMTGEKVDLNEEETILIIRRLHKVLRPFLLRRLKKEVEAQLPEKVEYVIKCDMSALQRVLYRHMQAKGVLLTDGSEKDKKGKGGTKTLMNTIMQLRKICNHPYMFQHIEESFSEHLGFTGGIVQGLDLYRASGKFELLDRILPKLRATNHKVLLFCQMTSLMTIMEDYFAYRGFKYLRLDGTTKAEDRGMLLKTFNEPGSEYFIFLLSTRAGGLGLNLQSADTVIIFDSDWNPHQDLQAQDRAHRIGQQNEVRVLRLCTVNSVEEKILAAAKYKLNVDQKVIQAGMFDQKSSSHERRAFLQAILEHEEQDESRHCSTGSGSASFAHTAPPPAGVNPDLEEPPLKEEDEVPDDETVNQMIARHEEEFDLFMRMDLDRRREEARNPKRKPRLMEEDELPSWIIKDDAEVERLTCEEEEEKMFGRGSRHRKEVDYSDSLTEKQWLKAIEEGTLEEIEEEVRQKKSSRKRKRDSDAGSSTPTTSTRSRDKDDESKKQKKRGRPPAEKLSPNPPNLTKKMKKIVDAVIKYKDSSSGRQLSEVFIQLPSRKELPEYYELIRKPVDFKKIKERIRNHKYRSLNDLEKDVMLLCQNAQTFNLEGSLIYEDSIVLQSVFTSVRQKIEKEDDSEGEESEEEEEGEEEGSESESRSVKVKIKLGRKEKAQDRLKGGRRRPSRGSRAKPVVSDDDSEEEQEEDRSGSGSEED
SMARCC1, Q92922, UniProt Q92922, whole entry: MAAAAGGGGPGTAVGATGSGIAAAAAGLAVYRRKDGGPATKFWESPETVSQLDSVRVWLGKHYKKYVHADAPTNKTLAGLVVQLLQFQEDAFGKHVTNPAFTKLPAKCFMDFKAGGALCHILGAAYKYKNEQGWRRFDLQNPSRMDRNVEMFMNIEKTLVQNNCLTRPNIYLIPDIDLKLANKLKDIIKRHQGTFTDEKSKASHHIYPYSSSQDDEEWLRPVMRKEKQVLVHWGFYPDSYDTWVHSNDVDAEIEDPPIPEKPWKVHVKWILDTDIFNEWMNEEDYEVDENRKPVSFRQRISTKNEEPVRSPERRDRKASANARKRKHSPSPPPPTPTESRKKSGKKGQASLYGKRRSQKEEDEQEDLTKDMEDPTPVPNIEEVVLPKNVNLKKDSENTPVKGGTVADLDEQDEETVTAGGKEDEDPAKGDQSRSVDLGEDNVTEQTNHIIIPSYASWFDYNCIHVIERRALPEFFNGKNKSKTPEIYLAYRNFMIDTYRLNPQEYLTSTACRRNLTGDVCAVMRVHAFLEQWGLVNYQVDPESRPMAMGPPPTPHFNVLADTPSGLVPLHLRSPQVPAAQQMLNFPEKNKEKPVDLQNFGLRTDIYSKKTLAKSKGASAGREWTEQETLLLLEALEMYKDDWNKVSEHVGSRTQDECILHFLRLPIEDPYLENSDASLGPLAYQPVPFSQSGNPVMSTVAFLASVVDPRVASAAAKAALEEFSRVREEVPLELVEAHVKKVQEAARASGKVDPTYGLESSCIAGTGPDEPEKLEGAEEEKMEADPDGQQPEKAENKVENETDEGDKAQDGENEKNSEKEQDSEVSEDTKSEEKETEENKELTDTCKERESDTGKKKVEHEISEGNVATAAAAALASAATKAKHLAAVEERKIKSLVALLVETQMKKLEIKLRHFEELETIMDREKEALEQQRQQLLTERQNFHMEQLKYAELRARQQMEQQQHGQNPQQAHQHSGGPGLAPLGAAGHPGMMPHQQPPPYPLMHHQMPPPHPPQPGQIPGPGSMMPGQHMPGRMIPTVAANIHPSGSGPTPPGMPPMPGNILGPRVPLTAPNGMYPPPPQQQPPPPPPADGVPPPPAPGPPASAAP

Key:
Experiment in all cases: PRISMA enrichment of interactor (LFQ) in peptide spot vs all other peptide spots (log2 fold change); higher = stronger / more specific binding of the interactor to the peptide
[1] = molecular target: NUTF2, P61970
Procedure: (§1)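 PRISMA: 221 full-length sORF-encoded peptides (3-15 aa), plus SOS1/GLUT1 control peptides, were spot-synthesized on cellulose membranes in triplicate. Membranes were incubated with HEK293T lysate, and bound proteins were identified by LC-MS/MS with LFQ. Enrichment is the log2 fold change versus all other peptide spots; only significant interactors are listed (cutoff c=6, x0=2.8).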

[2] = molecular target: NXF1, Q9UBU9
Procedure: as §1

[3] = molecular target: NXT1, Q9UKK6
Procedure: as §1

[4] = molecular target: OGT, O15294
Procedure: as §1

[5] = molecular target: PAK4, O96013
Procedure: as §1

[6] = molecular target: PDCD6, O75340
Procedure: as §1

[7] = molecular target: PDF, Q9HBH1
Procedure: as §1

[8] = molecular target: PDLIM7, Q9NR12
Procedure: as §1

[9] = molecular target: PIN1, Q13526
Procedure: as §1

[10] = molecular target: PINX1, Q96BK5
Procedure: as §1

[11] = molecular target: PLK1, P53350
Procedure: as §1

[12] = molecular target: POLDIP3, Q9BY77
Procedure: as §1

[13] = molecular target: POLRMT, O00411
Procedure: as §1

[14] = substrate: PPIF, P30405
Procedure: as §1

[15] = molecular target: PPIH, O43447
Procedure: as §1

[16] = molecular target: PPIL1, Q9Y3C6
Procedure: as §1

[17] = molecular target: PPIL2, Q13356
Procedure: as §1

[18] = molecular target: PPP1R10, Q96QC0
Procedure: as §1

[19] = molecular target: PRPF3, O43395
Procedure: as §1

[20] = molecular target: PRPF4, O43172
Procedure: as §1

[21] = molecular target: PRRC2A, P48634
Procedure: as §1

[22] = molecular target: PRRC2B, Q5JSZ5
Procedure: as §1

[23] = molecular target: PRRC2C, Q9Y520
Procedure: as §1

[24] = molecular target: PSPC1, Q8WXF1
Procedure: as §1

[25] = molecular target: PYCR1, P32322
Procedure: as §1

[26] = molecular target: PYCR2, Q96C36
Procedure: as §1

[27] = molecular target: RACGAP1, Q9H0H5
Procedure: as §1

[28] = molecular target: RAE1, P78406
Procedure: as §1

[29] = molecular target: RBM14, Q96PK6
Procedure: as §1

[30] = molecular target: RBM27, Q9P2N5
Procedure: as §1

[31] = molecular target: RBM33, Q96EV2
Procedure: as §1

[32] = molecular target: RPUSD3, Q6P087
Procedure: as §1

[33] = molecular target: RRM1, P23921
Procedure: as §1

[34] = molecular target: RTCB, Q9Y3I0
Procedure: as §1

[35] = molecular target: RTRAF, Q9Y224
Procedure: as §1

[36] = molecular target: SAFB, Q15424
Procedure: as §1

[37] = molecular target: SAFB2, Q14151
Procedure: as §1

[38] = molecular target: SDF2L1, Q9HCN8
Procedure: as §1

[39] = molecular target: SEH1L, Q96EE3
Procedure: as §1

[40] = molecular target: SF1, Q15637
Procedure: as §1

[41] = molecular target: SFPQ, P23246
Procedure: as §1

[42] = molecular target: SLC9A3R2, Q15599
Procedure: as §1

[43] = molecular target: SLTM, Q9NWH9
Procedure: as §1

[44] = molecular target: SMARCA4, P51532
Procedure: as §1

[45] = molecular target: SMARCC1, Q92922
Procedure: as §1

**Q.** Which results are given for MVDNFYF [ASPN]?
**A.** PRISMA enrichment of interactor (log2) [1]: 5.39; PRISMA enrichment of interactor (log2) [2]: 9.28; PRISMA enrichment of interactor (log2) [3]: 4.29; PRISMA enrichment of interactor (log2) [4]: 4.97; PRISMA enrichment of interactor (log2) [5]: 5.32; PRISMA enrichment of interactor (log2) [6]: 6.63; PRISMA enrichment of interactor (log2) [7]: 6.07; PRISMA enrichment of interactor (log2) [8]: 5.87; PRISMA enrichment of interactor (log2) [9]: 5.52; PRISMA enrichment of interactor (log2) [10]: 5.88; PRISMA enrichment of interactor (log2) [11]: 6.24; PRISMA enrichment of interactor (log2) [12]: 5.88; PRISMA enrichment of interactor (log2) [13]: 5.69; PRISMA enrichment of interactor (log2) [14]: 7.3; PRISMA enrichment of interactor (log2) [15]: 7.02; PRISMA enrichment of interactor (log2) [16]: 4.89; PRISMA enrichment of interactor (log2) [17]: 7.85; PRISMA enrichment of interactor (log2) [18]: 7.05; PRISMA enrichment of interactor (log2) [19]: 5.25; PRISMA enrichment of interactor (log2) [20]: 5.09; PRISMA enrichment of interactor (log2) [21]: 7.13; PRISMA enrichment of interactor (log2) [22]: 4.2; PRISMA enrichment of interactor (log2) [23]: 4.67; PRISMA enrichment of interactor (log2) [24]: 8.66; PRISMA enrichment of interactor (log2) [25]: 7.86; PRISMA enrichment of interactor (log2) [26]: 8.4; PRISMA enrichment of interactor (log2) [27]: 4.22; PRISMA enrichment of interactor (log2) [28]: 6.03; PRISMA enrichment of interactor (log2) [29]: 6.36; PRISMA enrichment of interactor (log2) [30]: 5.42; PRISMA enrichment of interactor (log2) [31]: 6.99; PRISMA enrichment of interactor (log2) [32]: 4.77; PRISMA enrichment of interactor (log2) [33]: 5.19; PRISMA enrichment of interactor (log2) [34]: 4.77; PRISMA enrichment of interactor (log2) [35]: 5.33; PRISMA enrichment of interactor (log2) [36]: 7.05; PRISMA enrichment of interactor (log2) [37]: 6.11; PRISMA enrichment of interactor (log2) [38]: 4.78; PRISMA enrichment of interactor (log2) [39]: 4.98; PRISMA enrichment of interactor (log2) [40]: 5.92; PRISMA enrichment of interactor (log2) [41]: 6.15; PRISMA enrichment of interactor (log2) [42]: 8.88; PRISMA enrichment of interactor (log2) [43]: 5.73; PRISMA enrichment of interactor (log2) [44]: 4.78; PRISMA enrichment of interactor (log2) [45]: 5.68
